Results deposited as PubChem BioAssay AID1259308 (NCATS, 2017)

Screen: 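Genes whose loss raises luciferase production in HEK293 cells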 (primary screen)
Cell system: human HEK293 embryonic kidney cells stably expressing firefly luciferase (HEK-CMV-Luc2-Hygro)
Reagent: single siRNA against human genes, 0.8 pmol siRNA per well
Timing: 72 h
Measured: 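Luciferase light (ONE-Glo) measured on one replicate plate set and viability (CellTiter-Glo) on the other, scaled to a negative control siRNA, with robust z-scores and luciferase per cell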
Scale: total luciferase, z-score and total luciferase, % of control: higher = more reporter protein produced; luciferase per cell, z-score: higher = more reporter output per viable cell; viable cells, % of control: higher = more viable cells
Call rule: 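Active when the median/MAD z-score for overall luciferase is greater than 3; a gene was taken forward for validation with new siRNAs if at least two of its three siRNAs passed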
Meaning of the calls: active = raised luciferase; inactive = no rise
The whole screen tested about 59,000 reagents; below is an unselected part. Over the whole deposit, about 1,510 (2.6%) are marked active. 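Calls use total luciferase alone and ignore viability, so some active siRNAs may act by altering cell number.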 Reagent sequences are not shown.

target gene | PubChem SID | total luciferase, z-score | total luciferase, % of control | luciferase per cell, z-score | viable cells, % of control | Call
GFUS | SID160718413 | 0.688 | 95.6 | 0.779 | 87 | inactive
GFUS | SID160718414 | -0.344 | 75 | -0.502 | 95.7 | inactive
GFUS | SID160718415 | 1.3 | 108 | 0.248 | 113 | inactive
USP38 | SID160752497 | 1.06 | 103 | 1.17 | 84.5 | inactive
USP38 | SID160752498 | 1.18 | 105 | 1.38 | 81.8 | inactive
USP38 | SID160752499 | 1.27 | 107 | 0.791 | 97.3 | inactive
FKBP9 | SID160730635 | 0.0871 | 83.6 | 0.783 | 76 | inactive
FKBP9 | SID160730644 | 1.27 | 107 | 1.11 | 89.4 | inactive
FKBP9 | SID160730655 | 0.0899 | 83.7 | 0.456 | 82.9 | inactive
HCFC2 | SID160739285 | 0.178 | 85.4 | 0.103 | 92.9 | inactive
HCFC2 | SID160739286 | -0.169 | 78.5 | -0.769 | 107 | inactive
HCFC2 | SID160739287 | -0.6 | 70 | -0.553 | 90.4 | inactive
ARL15 | SID160741980 | 1.46 | 111 | 1.95 | 74.1 | inactive
ARL15 | SID160741981 | -1.23 | 57.5 | -1.34 | 91.3 | inactive
ARL15 | SID160741982 | 0.73 | 96.4 | 0.798 | 87.3 | inactive
CCDC85A | SID160755011 | 1.26 | 107 | 0.271 | 111 | inactive
CCDC85A | SID160755012 | -0.214 | 77.6 | -0.832 | 108 | inactive
CCDC85A | SID160755013 | 0.491 | 91.7 | -0.128 | 106 | inactive
ATP2A3 | SID160721601 | -0.251 | 76.9 | -1.11 | 115 | inactive
ATP2A3 | SID160721613 | 0.0116 | 82.1 | -0.861 | 115 | inactive
ATP2A3 | SID160721624 | 0.286 | 87.6 | 0.153 | 94 | inactive
SMIM24 | SID160763328 | 1.83 | 118 | 2.7 | 64.8 | inactive
SMIM24 | SID160763329 | 0.24 | 86.7 | 1.32 | 68.5 | inactive
SMIM24 | SID160763330 | -1.65 | 49 | -1.38 | 78.8 | inactive
CYP26A1 | SID160752080 | -0.277 | 76.4 | -0.196 | 89.8 | inactive
CYP26A1 | SID160752091 | 0.354 | 88.9 | -0.2 | 105 | inactive
CYP26A1 | SID160752099 | 0.797 | 97.7 | 0.138 | 105 | inactive
DPH5 | SID160741091 | -0.773 | 66.5 | -1.29 | 104 | inactive
DPH5 | SID160741092 | -0.442 | 73.1 | -1.21 | 112 | inactive
DPH5 | SID160741093 | -1.68 | 48.4 | -1.25 | 75.2 | inactive
LACC1 | SID160758192 | -1.13 | 59.5 | -1.39 | 95.9 | inactive
LACC1 | SID160758193 | -0.823 | 65.5 | -0.593 | 85.6 | inactive
LACC1 | SID160758194 | -1.62 | 49.7 | -1.35 | 79.2 | inactive
TOE1 | SID160754892 | 0.374 | 89.3 | 0.413 | 89.5 | inactive
TOE1 | SID160754893 | -0.0741 | 80.4 | -0.362 | 98.8 | inactive
TOE1 | SID160754894 | -0.213 | 77.6 | -0.428 | 97.1 | inactive
GTSF1L | SID160758867 | -1.03 | 61.4 | 0.886 | 54.3 | inactive
GTSF1L | SID160758868 | 1.28 | 107 | 1.06 | 90.7 | inactive
GTSF1L | SID160758869 | 1.16 | 105 | 0.978 | 90.7 | inactive
